Data reported in the supplement of paper PMC5949888.
Most values lie at the floor of the assay. Slopes are relative: functional sequences can read slightly below zero.

These substances were tested on Saccharomyces cerevisiae PS128 hsf1 delta, HSF1(1-493) fusion (assay: growth estimate (transactivation domain function in HSF1 fusion, heat-shock survival) (a.u. (slope of normalised read count over time)); higher = stronger growth at 37°C, i.e. more transactivation activity). Details: library: random library.
Experimental: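 Random 60-nt DNA library encoding peptides of up to 20 aa, fused to the C-terminus of yeast HSF1 residues 1-493 (C-terminal TAD deleted) and expressed from the native HSF1 promoter on a CEN plasmid in hsf1-deleted S. cerevisiae PS128. Cells were selected at 37°C on -trp 5-FOA plates for 0, 2, 4, 6 and 8 days and amplicons were sequenced. Growth estimate is the slope of a robust linear fit of total-sum-normalised read counts (normalised to the first time point) over time, using at least 2 replicates. Sequences are classed functional (TAD activity) above a threshold of -0.13, set from stop-codon control sequences.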

Substance	growth estimate
LALTLGLEVKVALGTYGV	-0.25
SRNGRSRVH	< -0.25
GGISTK	< -0.25
RIARITLKTMSVHMPEFT	< -0.25
AVGAMDFERESSENSVLITA	< -0.25
GWGKSIGYLVIS	< -0.25
WAI	< -0.25
AGLTRVLTHVDGRVVAFLYW	< -0.25
VSY	< -0.25
WLSVCLRANSKRVGPVPPVA	< -0.25
SRGLLWNQFWRQ	< -0.25
PEGVFSWRPR	< -0.25
SASRAWVTILTFEVKSWGHG	< -0.25
FCLASGRIT	< -0.25
DRTLYYFTSDESGIRWRIDS	< -0.25
CWVQPFTVASGRFVTPSEAG	< -0.25
RHQGEIACL	< -0.25
AYSVGD	< -0.25
GSSSSR	< -0.25
FTVQPRM	< -0.25
HDPMSVLLS	< -0.25
LGVSCEVTVSRDARVGLEWA	< -0.25
VTEHRYV	< -0.25
FRLF	< -0.25
NLRPNTWTRFHRHPLRERRR	< -0.25
GAIVHIGG	< -0.25

Substance	growth estimate
QGLRRQT	< -0.25
GHI	< -0.25
NELAQESSAQFGVAEAAAAV	< -0.25
LLWILLNDGRAILSHRPVYR	< -0.25
PNLRETLKLGSVDL	< -0.25
SPFKGKPSTGLEGCRVVLAL	< -0.25
AEHLTGLGHTLRRFDLFISP	< -0.25
FKPLGQSHERMIFRR	< -0.25
FAEFYGRVRVGTGLDVETPA	-0.135
GVPRYNVYIVDGTTGRRCQG	-0.245
FVNKYIRHNRLN	< -0.25
FNSRDWYGDRGQKCRPSPPA	< -0.25
GGQLCDVKAAMGPVRGNLR	< -0.25
GFRPWN	< -0.25
TKIS	< -0.25
EKREPGLKKGWLVLDSRTVR	< -0.25
SRRG	-0.243
SVWGFFAWGGTRFKPDVCSY	0.221
DIRVPSVSLQSPNSMAWPLI	-0.0419
VYRSSHPTSSDRVEHCTSTL	< -0.25
RHVSKQPARVMLREPDPHN	< -0.25
SKTLRNHDAWAKSTCFENVG	< -0.25
GRTPSKLIPATRKGSALH	< -0.25
ISMV	< -0.25
LRQLQFSGLYVFKEPAPTRD	< -0.25
RRAFRKRLSTNIRSTRYTRP	< -0.25

Substance	growth estimate
LCPV	< -0.25
PHLGRSGVRGNHMPGFSVIH	< -0.25
MEICERHGGGDLNATPTQAA	-0.246
SVHIDLLISPILPV	< -0.25
RLRGYRWPVLSQHMLQSVAA	< -0.25
PRTGHCQLGLSVWARTIGRR	< -0.25
RWDLLMIPEKREKRVVLSSV	< -0.25
PVSTLLGRGFGPLFERRLGS	< -0.25
LNKELQ	-0.24
GMHPCSVFACSMLYSPPGME	< -0.25
LQFSGQPSCRGGGSISNGRP	< -0.25
SRQSIDRNPGNNIFVHNQRA	< -0.25
DFEECTPLVISP	< -0.25
RSAVRSIRVTARSYQNRKAE	< -0.25
PSGLSVSPILGRNPNRKGNP	-0.245
SFGLACRLYARGLGVPLFLS	< -0.25
LRCVCSKFASVNHI	< -0.25
GGLTGTIHRTWLAGRTSHVT	< -0.25
GRTMPEASYRNSSPTYVSSM	< -0.25
CRGFREGS	< -0.25
PGWTDLIIWCLKVNSHRGDV	< -0.25
LNSRCRVSCGFDAFVLAIAS	< -0.25
RSPFDAVILMRNRTHGVSHI	< -0.25
LVPLVRGVQAEPRLRCPISN	< -0.25
RAT	< -0.25
LKQSSVSVLRRVKVIFERGV	< -0.25

Substance	growth estimate
NAAKVSSSTFYCEQTTAASQ	< -0.25
KSELGTLLGPTNVARIPATF	< -0.25
ATIYQRMLSLQGTRSYSRLA	< -0.25
LVVCRKTVAHTRLNNRLIVI	< -0.25
SVTGCRLGLNTRQHGRIWQV	< -0.25
ISNLP	-0.173
SRTPRVVIRGMRRMDLRCLN	< -0.25
RGRRSLGTLPGQFILFIYGG	< -0.25
KVRVPRLFSRRNIRA	< -0.25
RSRSTRKCLSPCANLGRSHD	< -0.25
KASM	< -0.25
RDRKSYSDLLTC	< -0.25
RTG	< -0.253
VQVDTQRSSTILCGS	< -0.25
YGQFSGHRAY	< -0.25
IHDRWLLSGLGIDKTAKWLK	< -0.25
LPSGVAVRQGNSTPWI	< -0.25
SSFQ	< -0.25
MENVWEVIWKVSLGMRVVSI	< -0.25
IERN	< -0.25
ALIRIKVMSYDR	< -0.25
QYFSWRVKSPFVGATLTKHA	< -0.25
EGDVVSKLSSPNTKLFFHAV	< -0.25
CLSSSRFGDSS	< -0.25
WTCGVSG	< -0.25
YYNRKLVSCGILVGQSHPST	< -0.25

Substance	growth estimate
PEYDWQTPDRDSGGSQDLVR	< -0.25
VTIQVSLFFGSCTFLHTRST	< -0.25
ERFRDRGNVALLWVADRYDR	< -0.25
ELRPLDQTASLRGLRE	< -0.25
YCSFYLSR	< -0.25
PVGESSARDVGLAAQPITIV	< -0.25
ELRGKADQPVSNAPACEENQ	< -0.25
LKSRQWGRVMGS	-0.217
THGSS	< -0.25
TRYHLRTTRARQDGLYLRTP	< -0.25
IRVSICPVNR	< -0.25
KVRSAPRIHGSSFLSVAVSS	< -0.25
MTGVYEPL	< -0.25
MSIFILR	< -0.25
SYYVRNLI	-0.241
RIEYKARTTSLGCFTILDFK	< -0.25
RLPLARSADRNRGLFVCTVS	< -0.25
YTLTSRTVHSSRTLNHWECG	< -0.25
NFRDAIGHGGTKSGSAHFPA	< -0.25
MLTRPYRTLCPPNYPFEEYR	-0.245
AMRLTTHV	< -0.25
NTQKP	< -0.25
VSLRSIA	< -0.25
LVFHRVCSTVGD	< -0.25
VTYALDQT	< -0.25
FRRISETGATV	< -0.25

Substance	growth estimate
STGAYRIPSCCEPRRFVILA	< -0.25
GLSPRLTIIQVWYQFCRRDV	< -0.25
RSWLISQPCSEITGGLDL	< -0.25
KGPESIKFVPCTPGS	< -0.25
CLGYRTYSGVRRELTGT	< -0.25
SWRACNCGL	< -0.25
LRLNGFGFQHHDPLARGVIG	< -0.25
SVKTRCKSRGKASS	-0.245
MVISLLGVNFSSEASEPSRV	< -0.25
LRVR	-0.245
GLRCWWRHTIVLGPVDLVPP	< -0.25
VFHRKALAGIPGIRMGSY	< -0.25
LTCRQRGG	-0.242
PETVRRSDGYRSQN	< -0.25
LAGRD	< -0.25
DLNVTRES	< -0.25
GLVGLT	< -0.25
IPSASISKAGLTRCKRRMTA	< -0.25
LGTKAILMG	< -0.25
PGLRREVCLTPTPIRESWFK	< -0.25
RGNFMGWYFGSESETWILCG	< -0.25

Rewritten with bars between the fields: entries from further up
Substance | growth estimate
NAAKVSSSTFYCEQTTAASQ | < -0.25
KSELGTLLGPTNVARIPATF | < -0.25
ATIYQRMLSLQGTRSYSRLA | < -0.25
LVVCRKTVAHTRLNNRLIVI | < -0.25
SVTGCRLGLNTRQHGRIWQV | < -0.25
ISNLP | -0.173
